Laboratory results taken from article PMC8895442.
Results are given in words; binding and its absence hold for the method and conditions named. Binding seen in cells or lysates may run through a third protein. Some binding calls cover weakened binding; strength is not graded here.

The chains behind the UniProt entries cited, without tags or fusion partners.
UniProt Q8IWZ3: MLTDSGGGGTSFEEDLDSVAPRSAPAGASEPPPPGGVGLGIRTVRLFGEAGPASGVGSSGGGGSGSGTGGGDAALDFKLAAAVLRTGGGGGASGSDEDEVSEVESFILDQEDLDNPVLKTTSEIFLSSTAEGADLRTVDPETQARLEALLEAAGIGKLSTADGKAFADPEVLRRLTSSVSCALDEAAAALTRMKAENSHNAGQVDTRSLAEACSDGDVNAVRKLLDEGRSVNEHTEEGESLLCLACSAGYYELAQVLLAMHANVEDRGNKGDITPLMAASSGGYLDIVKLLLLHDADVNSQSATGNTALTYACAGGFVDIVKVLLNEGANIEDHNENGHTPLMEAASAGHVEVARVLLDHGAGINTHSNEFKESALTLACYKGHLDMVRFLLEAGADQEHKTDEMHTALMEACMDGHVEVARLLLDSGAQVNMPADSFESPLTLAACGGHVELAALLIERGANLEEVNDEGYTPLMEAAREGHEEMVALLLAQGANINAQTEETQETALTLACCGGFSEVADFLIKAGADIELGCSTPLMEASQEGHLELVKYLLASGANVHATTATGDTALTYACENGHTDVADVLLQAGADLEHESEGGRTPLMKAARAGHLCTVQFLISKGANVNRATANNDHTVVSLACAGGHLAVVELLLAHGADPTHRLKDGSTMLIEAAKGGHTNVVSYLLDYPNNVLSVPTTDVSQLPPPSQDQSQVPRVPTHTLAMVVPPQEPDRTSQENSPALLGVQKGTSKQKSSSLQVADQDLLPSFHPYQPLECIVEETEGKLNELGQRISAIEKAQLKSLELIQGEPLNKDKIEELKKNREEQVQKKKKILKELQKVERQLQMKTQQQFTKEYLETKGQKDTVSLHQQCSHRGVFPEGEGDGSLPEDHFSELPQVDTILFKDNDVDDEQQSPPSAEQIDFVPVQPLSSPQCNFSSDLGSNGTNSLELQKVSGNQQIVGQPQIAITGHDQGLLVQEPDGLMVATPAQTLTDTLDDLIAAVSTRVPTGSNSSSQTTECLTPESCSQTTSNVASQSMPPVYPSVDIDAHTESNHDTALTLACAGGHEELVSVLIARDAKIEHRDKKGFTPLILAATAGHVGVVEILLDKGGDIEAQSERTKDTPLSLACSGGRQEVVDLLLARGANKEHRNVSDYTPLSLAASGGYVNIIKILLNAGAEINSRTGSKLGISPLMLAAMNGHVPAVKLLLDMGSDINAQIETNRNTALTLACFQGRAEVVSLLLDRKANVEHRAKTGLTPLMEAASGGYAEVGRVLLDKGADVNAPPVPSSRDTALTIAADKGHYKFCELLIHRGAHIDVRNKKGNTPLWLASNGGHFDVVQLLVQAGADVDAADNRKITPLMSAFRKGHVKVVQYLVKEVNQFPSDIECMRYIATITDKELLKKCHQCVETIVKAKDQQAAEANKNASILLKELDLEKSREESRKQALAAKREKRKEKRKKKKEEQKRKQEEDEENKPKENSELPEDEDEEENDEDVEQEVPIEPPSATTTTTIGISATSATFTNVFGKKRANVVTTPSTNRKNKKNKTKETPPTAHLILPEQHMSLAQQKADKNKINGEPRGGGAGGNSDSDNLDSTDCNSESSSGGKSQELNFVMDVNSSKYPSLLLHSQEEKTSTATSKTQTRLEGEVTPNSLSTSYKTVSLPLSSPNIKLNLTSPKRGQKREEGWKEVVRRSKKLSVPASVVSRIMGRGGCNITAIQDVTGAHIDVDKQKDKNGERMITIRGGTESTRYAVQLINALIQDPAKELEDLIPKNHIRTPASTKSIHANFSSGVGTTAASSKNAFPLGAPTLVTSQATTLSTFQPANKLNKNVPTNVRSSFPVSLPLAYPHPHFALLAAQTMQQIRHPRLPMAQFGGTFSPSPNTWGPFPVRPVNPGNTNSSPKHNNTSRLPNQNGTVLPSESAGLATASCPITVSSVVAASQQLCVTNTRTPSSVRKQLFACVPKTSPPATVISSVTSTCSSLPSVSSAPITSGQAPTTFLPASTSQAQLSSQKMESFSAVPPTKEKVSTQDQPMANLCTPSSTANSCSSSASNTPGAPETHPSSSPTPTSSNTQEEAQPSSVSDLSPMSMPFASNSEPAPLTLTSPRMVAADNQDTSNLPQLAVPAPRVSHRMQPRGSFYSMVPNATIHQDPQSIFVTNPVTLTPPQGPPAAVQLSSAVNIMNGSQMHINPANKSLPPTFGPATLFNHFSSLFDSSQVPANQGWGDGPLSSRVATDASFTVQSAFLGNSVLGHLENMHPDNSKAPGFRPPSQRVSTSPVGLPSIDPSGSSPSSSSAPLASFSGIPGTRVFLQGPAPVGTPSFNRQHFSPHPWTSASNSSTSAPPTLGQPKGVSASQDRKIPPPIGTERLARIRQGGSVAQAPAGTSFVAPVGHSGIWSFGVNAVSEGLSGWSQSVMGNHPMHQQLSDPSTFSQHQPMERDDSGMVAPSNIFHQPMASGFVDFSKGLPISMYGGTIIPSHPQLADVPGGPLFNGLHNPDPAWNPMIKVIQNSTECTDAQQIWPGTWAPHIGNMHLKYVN

Legend:
[1] = target: Flag-PTEN (phosphatase and tensin homolog deleted on chromosome ten) (UniProt P60484); assay: co-IP; co-immunoprecipitation in 293T cells (Fig. S2); bait not told
[2] = target: phosphatase and tensin homolog deleted on chromosome ten (PTEN), endogenous (human (endogenous in SW 1990 and HPAC)) (UniProt P60484); assay: co-IP; co-immunoprecipitation (Fig. 7C); cells and bait not told; repeated three times

binding [1]: binds | binding [2]: binds
Substance: ankyrin repeat and KH domain containing 1 (ANKHD1) (from UniProt Q8IWZ3 1-2542)
